Laboratory results as given in article PMC12040169 (PLOS Biology, 2025).
The other results are listed elsewhere or left out.

These molecules were tested on T1, CTL2-GFP (C. trachomatis L2/434/Bu, GFP-expressing). Details: bulk GFP, single well; 28.5 h, 10 µM; inhibitor.
T1 construct: L2/434/Bu, GFP-expressing
Design: species or system HeLa; Intracellular C. trachomatis growth in HeLa cells, bulk GFP fluorescence relative to DMSO

First: O=C(O)c1ccc(N2C(=O)CC(N3CCN(c4cccc(C(F)(F)F)c4)CC3)C2=O)cc1 (stereo not drawn) [CBK287228]
Second: O=C(O)c1ccc(/C=N/N2CCN(Cc3ccc(Cl)cc3)CC2)cc1 [CBK263561]
The “% of control remaining” value of the first is higher: 142.985% for the first, 125.685% for the second.

Compared with `CCCN1CCN(S(=O)(=O)c2ccc(C)cc2)CC1` [CBK270326], `Cc1ccc(-c2nnc(-c3cccc(S(=O)(=O)N4CCOCC4)c3)o2)cc1` [CBK263215] is lower in “% of control remaining” value: 137.103% for the first, 101.346% for the second.

First: COc1cccc2ncn(CCCc3nc(C)c(C)s3)c(=O)c12 [CBK307208]
Second: CCCc1nn(Cc2ccccn2)c(=O)c2cc3ccsc3n12 [CBK284229]
The “% of control remaining” value of the first is higher: 130.854% for the first, 128.534% for the second.

Compared with `COc1cccc(OC)c1-c1cn2ccnc2c(NC2CC2)n1` [CBK038020], `COc1ccc(CCC(=O)Nc2cccc(-c3ccc(OC4CCNCC4)cc3)c2)cc1OC` [CBK131925T] is lower in “% of control remaining” value: 205.551% for the first, 130.014% for the second.

Compared with `Cc1cc(NC(=O)N2CCCN(CC3CCCCC3)CC2)no1` [CBK306239], `Fc1ccc(Oc2nccnc2N2CCN(CC3CC3)CC2)cc1` [CBK083033T] is lower in “% of control remaining” value: 141.389% for the first, 113.871% for the second.

Compared with `O=C(CCNS(=O)(=O)c1ccc(Cl)cc1)Nc1ccncc1` [CBK269244], `CCOC(=O)Nc1ccc(S(=O)(=O)Nn2cnnc2)cc1` [CBK262138] is lower in “% of control remaining” value: 143.583% for the first, 99.155% for the second.

Compared with `Cc1ccc(C)c(-n2nnnc2SCC(=O)c2ccc(Cl)cc2Cl)c1` [CBK141941], `Fc1ccc(-n2nnnc2SCc2ccc(Cl)cc2)cc1Cl` [CBK102075] is lower in “% of control remaining” value: 88.1044% for the first, 85.0266% for the second.

First: COC(=O)NC(O)C(=O)c1ccco1 (stereo not drawn) [CBK027757]
Second: Cc1cc2nnn(C[C@@H](C)NC(=O)c3ccco3)c2cc1C [CBK282366]
The “% of control remaining” value of the first is lower: 108.312% for the first, 123.38% for the second.

First: CC1(C)CC(NC(=O)Cn2ccc3ccccc32)CCO1 (stereo not drawn) [CBK304347]
Second: CN1CCN(CC(=O)Nc2ccc(OCc3ccccc3)cc2)CC1 [CBK264844]
The “% of control remaining” value of the first is higher: 134.606% for the first, 110.804% for the second.

Compared with `CC(=O)c1sc(=S)n(N(C)C)c1C` [CBK006774], `COc1ccc(Br)cc1S(=O)(=O)Nc1nc(C)c(C(=O)O)s1` [CBK045558] is lower in “% of control remaining” value: 109.028% for the first, 64.8937% for the second.

Compared with `OC(COc1ccccc1)CN1CCN(Cc2ccccc2)CC1` (stereo not drawn) [CBK074852C], `O=C(COc1ccccc1)Nc1nn(Cc2ccc(S(=O)(=O)N3CCCC3)cc2)c2ccccc12` [CBK061594] is higher in “% of control remaining” value: 127.284% for the first, 162.624% for the second.

Going from `COc1ccc2[nH]cc(C3CCN(Cc4nc(C)no4)CC3)c2c1` [CBK305982] to `Cc1ccc2[nH]c3c(c2c1)CCOC31CCN(Cc2ccccc2-c2ccccc2)CC1` [CBK039915], the “% of control remaining” value falls from 131.255% to 34.3876%.

First: CCN(CC)C(=O)CN1CCN(c2nccnc2OCc2ccc(Cl)c(Cl)c2)CC1 [CBK083081T]
Second: CC(=O)c1ccc(-c2nccnc2N2CCN(c3ccncc3)CC2)s1 [CBK037015]
The “% of control remaining” value of the first is lower: 115.256% for the first, 189.842% for the second.

Going from `Cc1cc(C(=O)NC(C)C2CC3CCC2C3)c2cnn(C(C)C)c2n1` (stereo not drawn) [CBK281652] to `CC(C)NC(=O)NC1CCCc2nc(N3CCC(CO)CC3)ncc21` (stereo not drawn) [CBK307002], the “% of control remaining” value rises from 104.032% to 129%.

Compared with `CC(=O)c1ccc(-c2nccnc2NCc2cccc([N+](=O)[O-])c2)s1` [CBK037509], `Cc1ccc(C(=O)C2=C(O)C(=O)N(CCCn3ccnc3)C2c2cccc([N+](=O)[O-])c2)cc1` (stereo not drawn) [CBK263319] is higher in “% of control remaining” value: 76.0756% for the first, 107.888% for the second.

`CC(C)C(C(=O)Nc1ccc(S(=O)(=O)Nc2nccs2)cc1)N1C(=O)c2ccccc2C1=O` (stereo not drawn) [CBK265707] and `Cc1ccc(S(=O)(=O)N(CC(=O)Nc2ccccc2C)Cc2ccc(Cl)c(Cl)c2)cc1` [CBK264735] are the same in “% of control remaining” value: 100% for the first, 100% for the second.

Going from `COc1ccc(S(=O)(=O)Nc2cccc(C(=O)O)c2)cc1C(=O)O` [CBK264069] to `CCOC(=O)c1cccc(NS(=O)(=O)c2cc(F)c(Br)cc2F)c1` [CBK034333], the “% of control remaining” value falls from 119.655% to 116.722%.

Compared with `CC(=O)N(C)c1nc(-c2ccccc2)ccc1C(=O)Nc1ccc2c(c1)OCO2` [CBK106342], `CC(=O)N(C)c1ncc(Br)cc1C(=O)NCc1nc2ccccc2[nH]1` [CBK076522] is higher in “% of control remaining” value: 127.639% for the first, 154.36% for the second.

Compared with `O=C(Cc1c(Cl)cccc1Cl)Nc1ccc2[nH]ccc2c1` [CBK159664], `O=C(NC(=S)Nc1ccc2[nH]c(=O)[nH]c2c1)c1ccc(F)cc1` [CBK263986] is lower in “% of control remaining” value: 131.321% for the first, 100% for the second.

Going from `CC1(CNC(=O)C2CC(=O)N(C3CCCCC3)C2)COC1` (stereo not drawn) [CBK281754] to `O=C(C1CC1)N1C[C@@H](c2ccsc2)[C@@H]2CN(C3CCCC3)CC[C@@H]21` [CBK283382], the “% of control remaining” value rises from 83.3786% to 93.6967%.

First: COc1ccc(OC)c(NC(=O)CSc2nnc(-c3ccncc3)n2C)c1 [CBK266623]
Second: COc1ccc(-c2nnc(SCc3cc(=O)oc4cc(C)ccc34)n2CC(C)C)cc1 [CBK297518]
The “% of control remaining” value of the first is higher: 148.185% for the first, 142.038% for the second.

First: CN(C)CCCO/N=C1\CC2(CCCC2)c2ccccc21 [CBK013331]
Second: Cc1ccccc1-c1ccccc1CC1(C(=O)N(C)C)CCN(C(=O)CC(C)C)CC1 [CBK285714]
The “% of control remaining” value of the first is higher: 135.411% for the first, 121.127% for the second.

Going from `Clc1ccc(-c2noc(-c3ccco3)n2)cc1` [CBK026405] to `O=C(O)c1ccc(CNCc2ccc(-c3ccc(F)cc3)o2)cc1` [CBK269622C], the “% of control remaining” value rises from 120.798% to 136.291%.

First: Cc1ccc(S(=O)(=O)N(CC(=O)O)c2cccc(Cl)c2)cc1 [CBK262387]
Second: CSc1ccc([C@H]2[C@H](C(=O)O)CC(=O)N2Cc2ccccc2)cc1 [CBK286934]
The “% of control remaining” value of the first is lower: 113.711% for the first, 126.241% for the second.

Going from `CCCNC(=O)c1cc(C2CCCN(Cc3ccccc3)C2)no1` (stereo not drawn) [CBK283388] to `OCC[C@H]1CN2CCCC2CN1Cc1cccn1-c1ccccc1F` (stereo partly drawn) [CBK282977], the “% of control remaining” value falls from 140.559% to 137.526%.

First: O=C(OCc1nnsc1Cl)c1ccc(C(=O)c2ccccc2)cc1 [CBK297897]
Second: Cc1n[nH]c(C)c1CCC(=O)N/N=C\c1cccc(Oc2ccccc2)c1 [CBK263384]
The “% of control remaining” value of the first is higher: 101.961% for the first, 101.31% for the second.

Going from `CCC(=O)NCCc1cc2ccc(C)cc2[nH]c1=O` [CBK287434] to `CSCCCNC(=O)c1ccc2nc[nH]c2c1` [CBK153314], the “% of control remaining” value falls from 147.926% to 74.373%.

First: Cc1c(C#N)sc(-c2nc[nH]n2)c1C [CBK005952]
Second: COC(=O)c1c(C)[nH]c(C(=O)CSc2ncnc3sc(C)c(-c4ccccc4)c23)c1C [CBK266004]
The “% of control remaining” value of the first is higher: 135.905% for the first, 130.201% for the second.

First: O=C(Cn1ccc(=O)[nH]c1=O)NCc1ccc(OCC(F)(F)F)cc1 [CBK305041]
Second: O=C(Cn1nc2n(c1=O)CCCC2)NCc1ccccc1Cl [CBK304647]
The “% of control remaining” value of the first is lower: 76.2135% for the first, 93.8066% for the second.

Compared with `COCOc1ccc(-c2nccnc2OCCN2C(=O)c3ccccc3C2=O)cc1` [CBK106913], `CN(C)c1ccc(-c2nccnc2NS(=O)(=O)c2ccc(C(F)(F)F)cc2)cc1` [CBK050802] is lower in “% of control remaining” value: 125.416% for the first, 101.159% for the second.

Compared with `CC(=O)c1ccc(NC(=O)[C@@]2(CC(=O)O)CC(c3ccc(F)cc3)=NO2)cc1` [CBK286663], `CC(C)(C)OC(=O)N1CCC(N2CCc3cc(-c4ccc(S(C)(=O)=O)cc4)ccc3C2)CC1` [CBK165796] is lower in “% of control remaining” value: 121.253% for the first, 119.814% for the second.

Compared with `CC1(C)CC(=O)C2=C(C1)Nc1[nH][nH]c(=O)c1C2c1ccccn1` (stereo not drawn) [CBK288463], `C[C@]12CN(C(=O)C3CCCC3)C[C@H]1NC(=O)c1ccccc1C2=O` [CBK281672] is lower in “% of control remaining” value: 158.573% for the first, 117.684% for the second.

First: O=C(Cc1ccccc1)N(Cc1ccco1)C1CCN(c2ccc3c(c2)OCCO3)CC1 [CBK286529]
Second: COc1ccccc1CN(Cc1cccnc1)C(=O)NC(C)C(C)C (stereo not drawn) [CBK307672]
The “% of control remaining” value of the first is lower: 93.8984% for the first, 141.721% for the second.

Going from `C=CCN1C(=O)C2(CC(=O)N(CCCN(C)S(C)(=O)=O)C2=O)c2cc(F)ccc21` (stereo not drawn) [CBK075319] to `C=CCC1(CC=C)CCN1C(=O)c1cc(-c2c(C)nn(C)c2C)n[nH]1` [CBK282575], the “% of control remaining” value rises from 100% to 107.584%.

First: CC1CCCN(C(=O)CC(NC(N)=O)c2cccc(Br)c2)CC1 (stereo not drawn) [CBK305804]
Second: O=C(Nc1ccccc1Br)C1CCCC1 [CBK092059]
The “% of control remaining” value of the first is higher: 118.238% for the first, 101.578% for the second.

First: O=C(c1ccc(NCCCCO)nc1)N1CCC(N2CCOCC2)CC1 [CBK306521]
Second: COCc1cc(-c2ccc(C(=O)N3CCN(C)CC3)nc2)ccc1OCC1CCN(C(=O)OC(C)(C)C)CC1 [CBK174511]
The “% of control remaining” value of the first is lower: 92.0189% for the first, 100.173% for the second.

Going from `Cc1c(-c2ccc(Cl)cc2Cl)nc2ccccc2c1C(=O)NCCC(c1ccccc1)c1ccccc1` [CBK262634] to `CC[C@H]1C[N@@]2CC[C@H]1C[C@@H]2CNS(=O)(=O)c1cccc2cccnc12` [CBK288747], the “% of control remaining” value rises from 117.477% to 137.345%.

Compared with `CCCc1cc(C(=O)Nc2nccs2)cs1` [CBK288212], `CC(C)(C)n1cc(C(=O)N2CCNCC2c2cccc(Cl)c2)cn1` (stereo not drawn) [CBK304112] is higher in “% of control remaining” value: 135.273% for the first, 156.355% for the second.

Compared with `COc1cc(/C=N/Nc2nonc2N)cc(OC)c1OC` [CBK025758], `COc1cc(CN2CCCC3(CCN(C(=O)c4cc(F)c(F)cc4F)C3)C2)cc(OC)c1OC` (stereo not drawn) [CBK131988] is higher in “% of control remaining” value: 78.5477% for the first, 99.4233% for the second.
